At least one compound was matched to its structure with a doubt left.
Assays:
[1] = tested on: Sprague-Dawley rat having ototoxic hearing loss; test: Auditory brainstem response (ABR) test in rats with gentamicin ototoxic hearing loss; format: in vivo; conditions: GM 220 mg/kg, 16 KHz and 32 KHz
HEI-OC1 cells = test: RPM effects on apoptosis, MTS assay; format: cell-based; conditions: 5 mM GM in combination with 20 nM RPM
Description: An auditory cell line, e.g., House-Ear Institute-organ of Corti 1 (HEI-OC1), that expresses auditory genes was used. HEI-OC1 cells were cultured under conditions of a temperature of 33° C. and a CO2 (10%) by adding 10% fetal bovine serum (FBS) and 25 U/ml interferon-gamma to a Dulbecco's modified Eagle's Medium (DMEM) including high concentrations of glutamine. At about 90% confluence of the cultured cells on a bottom surface of a plate, the cell density was maintained within an appropriate range by performing serial subcultures using 2.5% Trypsin-EDTA.
Here, RPM was used as an inducer of autophagy and chloroquine (CQ) was used as an inhibitor of autophagy in terms of pretreatment and combination treatment.

In the case of `CO[C@H]1C[C@@H]2CC[C@@H](C)[C@@](O)(O2)C(=O)C(=O)N2CCCC[C@H]2C(=O)O[C@H]([C@H](C)C[C@@H]2CC[C@@H](O)[C@H](OC)C2)CC(=O)[C@H](C)/C=C(\C)[C@@H](O)[C@@H](OC)C(=O)[C@H](C)C[C@H](C)/C=C/C=C/C=C/1C` [RPM, rapamycin], the “auditory thresholds (ABR) compared with the control group” value ([1]; RPM 50 pM intratympanic injection) is reported as “significant decreased in the auditory thresholds”, the “auditory thresholds (ABR) compared with the control group” value ([1]; RPM 100 pM intratympanic injection) is reported as “significant decreased in the auditory thresholds” and the “apoptosis compared to cells treated with GM only” value (HEI-OC1 cells) is reported as “less likely to be undergone the apoptosis”.

Source: patent US10016400B2, “Composition including rapamycin as active ingredient for preventing or treating hearing loss” (AJOU UNIVERSITY INDUSTRY—ACADEMIC COOPERATION FOUNDATION, priority 2014, dated 2018)
